## Library screen at single concentrations

Measurements from “University of Dundee, Small-Polar-MMV Screening Library” (2021), ChEMBL document CHEMBL3988442.

Each number is a percent effect as filed. The record does not define 0% and 100%; most values in the screen are far below 50% and negative numbers occur (in some assays of this library far below -100). The compounds are a random part of those screened.

Mtb glucose medium: 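Growth of Mycobacterium tuberculosis over 3 days (7H9 medium with glucose and tyloxapol); the read-out is not stated. Compounds at 500 µM. The record gives no direction; compounds that gave an IC50 in retests scored well above the rest, so higher reads as more growth inhibition. About 18,000 compounds were tested under these conditions; 7.9% (about 1,400) showed 50% or more at least once.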
Mtb cholesterol medium: 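Phenotypic screen: M. tuberculosis growth, cholesterol and DPPC medium, 4 days; the read-out is not stated. Compounds at 500 µM. Higher reads as more growth inhibition (inferred: compounds with an IC50 in retests scored well above the rest). About 18,000 compounds were tested under these conditions; 5% (about 900) showed 50% or more at least once.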

CN(C)[C@H]1CN(Cc2ccc(Cl)cc2)C[C@@H]1O gave Mtb glucose medium: 32.23%; Mtb cholesterol medium: 11.87%.
CC1CN(C(=O)NCc2ccc(Br)s2)CC(=O)N1C (stereo unspecified) gave Mtb glucose medium: 39.86%; Mtb cholesterol medium: 13.18%.
COc1ccc(OC)c(NC(=O)CN2CCNCC2)c1 gave Mtb glucose medium: 6.579%; Mtb cholesterol medium: 3.286%.
Nc1c(C(=O)N2CCOCC2)cnn1-c1ccccc1 gave Mtb glucose medium: 11.23%; Mtb cholesterol medium: 15.58%.
Cc1cc(CCCC(=O)NCCS(N)(=O)=O)c(C)s1 gave Mtb glucose medium: 23.87%; Mtb cholesterol medium: -15.58%.
CC(C)n1nnnc1SCCS(=O)(=O)c1ccccc1 gave Mtb glucose medium: 55.52%; Mtb cholesterol medium: 56.32%.
CN[C@@H]1COC[C@H]1O gave Mtb glucose medium: -5.182%; Mtb cholesterol medium: -12.97%.
COCCN1CCCN(C(=O)c2cnc(C)cn2)CC1 gave Mtb glucose medium: 1.355%; Mtb cholesterol medium: 3.691%.
O=C(Cc1c[nH]c2ccccc12)N1CCNCC1 gave Mtb glucose medium: 20.71%; Mtb cholesterol medium: 4.054%.
CCn1cc(NC(=O)NCCN2CCCC(C)C2)cn1 (stereo unspecified) gave Mtb glucose medium: -1.856%; Mtb cholesterol medium: 3.289%.
COCCCNC(=O)N1CCCN(CCCOC)CC1 gave Mtb glucose medium: 8.736%; Mtb cholesterol medium: 13.66%.
COc1cc(CN)ccc1OCC(N)=O gave Mtb glucose medium: 7.08%; Mtb cholesterol medium: -18.45%.
O=C(CCC(F)(F)F)NCCCc1ccccn1 gave Mtb glucose medium: 44.65%; Mtb cholesterol medium: 15.97%.
COc1ccc(C(C(N)=O)N2CCOCC2)cc1 (stereo unspecified) gave Mtb glucose medium: 5.764%; Mtb cholesterol medium: -3.7%.
Cn1cc(Br)cc1C(=O)NCC1CC(=O)N(C2CC2)C1 (stereo unspecified) gave Mtb glucose medium: 31.37%; Mtb cholesterol medium: 2.238%.
CNC(=O)c1sc(NC2CC2)nc1C gave Mtb glucose medium: 68.04%; Mtb cholesterol medium: 83.15%.
Cc1oc(NC(=O)CSc2cnn[nH]2)c(C#N)c1C gave Mtb glucose medium: -14.1%; Mtb cholesterol medium: 7.329%.
CCOCc1noc(C(C)N)n1 (stereo unspecified) gave Mtb glucose medium: 15.84%; Mtb cholesterol medium: 7.924%.
CS(=O)(=O)NCc1cc(C#N)ccc1F gave Mtb glucose medium: -11.85%; Mtb cholesterol medium: -6.142%.
Cc1noc(C)c1CN1CCC(C(=O)NCCO)CC1 gave Mtb glucose medium: 0.6886%; Mtb cholesterol medium: -1.851%.
Cc1cc(N2CCC2c2ccccc2)n2ncnc2n1 (stereo unspecified) gave Mtb glucose medium: 83.03%; Mtb cholesterol medium: 13.7%.
CC1(NC(=O)CSc2ccccn2)CCS(=O)(=O)C1 (stereo unspecified) gave Mtb glucose medium: -7.439%; Mtb cholesterol medium: -1.343%.
Cc1ncc(S(C)(=O)=O)c(NCc2ccncc2)n1 gave Mtb glucose medium: 8.675%; Mtb cholesterol medium: 4.193%.
CC(=O)NCCN(C)Cc1ccccc1 gave Mtb glucose medium: -7.251%; Mtb cholesterol medium: -22.25%.
Nc1nnc(CC(=O)N2CCCC2)[nH]1 gave Mtb glucose medium: 13.17%; Mtb cholesterol medium: 26.63%.
CO[C@H]1CN(Cc2nccn2C(C)C)CC[C@H]1N gave Mtb glucose medium: -0.3288%; Mtb cholesterol medium: 2.984%.
Cc1ncncc1C(=O)N[C@@H]1CCOC[C@H]1O gave Mtb glucose medium: 4.825%; Mtb cholesterol medium: -2.836%.
O=C(NC1CCCNC1=O)c1cnc2ccccc2n1 (stereo unspecified) gave Mtb glucose medium: -7.086%; Mtb cholesterol medium: 2.495%.
CC(O)CCNS(=O)(=O)c1cc(S(C)(=O)=O)ccc1Cl (stereo unspecified) gave Mtb glucose medium: 12.93%; Mtb cholesterol medium: 3.616%.
O=C(c1cc(Cl)c[nH]1)N1CCN(Cc2cccs2)CC1 gave Mtb glucose medium: -11.91%; Mtb cholesterol medium: -21.19%.
CCCN(CC(N)=O)S(=O)(=O)c1ccc(C)cc1 gave Mtb glucose medium: 13.01%; Mtb cholesterol medium: 6.53%.
Nc1cnccc1NC(=O)c1ccccc1 gave Mtb glucose medium: 0.9902%; Mtb cholesterol medium: -29.78%.
CCC(C)NC(=O)C1CCN(S(C)(=O)=O)CC1 (stereo unspecified) gave Mtb glucose medium: -8.894%; Mtb cholesterol medium: -9.473%.
Cc1nnc(CNC(=O)Nc2ccccc2F)n1C gave Mtb glucose medium: 8.889%; Mtb cholesterol medium: -0.02655%.
CC(=O)NCc1ccc(C(=O)CSc2nccn2C)s1 gave Mtb glucose medium: -6.631%; Mtb cholesterol medium: -14.02%.
CC(=O)c1ccc(Cl)c(Cl)c1OCC(=O)N(C)C gave Mtb glucose medium: 15.11%; Mtb cholesterol medium: -4.462%.
CC(C)c1noc(CCNC(=O)C2CC2)n1 gave Mtb glucose medium: 10.47%; Mtb cholesterol medium: 8.416%.
CCOC1CCCNC1 (stereo unspecified) gave Mtb glucose medium: 3.626%; Mtb cholesterol medium: -6.056%.
CCC(C)NC(=O)NCCCC(=O)N(CC)CC (stereo unspecified) gave Mtb glucose medium: 4.159%; Mtb cholesterol medium: -5.104%.
NC1CCN(c2ccccn2)CC1 gave Mtb glucose medium: 30.27%; Mtb cholesterol medium: 12.87%.
CCc1noc(CC)c1CNC(=O)Nc1ncnn1C gave Mtb glucose medium: -10.72%; Mtb cholesterol medium: -10.48%.
O=C(N[C@H]1C[C@@H]2OCC[C@H]12)c1cc(O)ccc1F gave Mtb glucose medium: 16.83%; Mtb cholesterol medium: 7.276%.

The last 3 entries again:

structure,Mtb glucose medium,Mtb cholesterol medium
NC1CCN(c2ccccn2)CC1,30.27,12.87
CCc1noc(CC)c1CNC(=O)Nc1ncnn1C,-10.72,-10.48
O=C(N[C@H]1C[C@@H]2OCC[C@H]12)c1cc(O)ccc1F,16.83,7.276